The text below walks through data of patent publication US20210293825A1, “METHODS FOR PRECISION THERAPEUTIC TARGETING OF HUMAN CANCER CELL MOTILITY AND KITS THEREOF” (UNITED STATES GOVERNMENT AS REPRESENTED BY THE DEPARTMENT …, priority 2018, published 2021).

The chains behind the UniProt entries cited, without tags or fusion partners. Where a name states a change or a piece, a line headed by the entry shows the natural chain unless it says otherwise.
UniProt P27652: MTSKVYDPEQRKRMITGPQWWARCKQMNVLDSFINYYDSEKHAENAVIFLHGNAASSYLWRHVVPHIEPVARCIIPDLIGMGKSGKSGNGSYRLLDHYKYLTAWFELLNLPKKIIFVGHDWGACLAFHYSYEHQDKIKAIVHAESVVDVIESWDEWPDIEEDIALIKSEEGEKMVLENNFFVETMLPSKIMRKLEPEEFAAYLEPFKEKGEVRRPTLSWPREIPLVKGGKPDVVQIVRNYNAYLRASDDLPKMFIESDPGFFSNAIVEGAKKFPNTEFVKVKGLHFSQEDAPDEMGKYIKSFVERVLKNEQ
UniProt Q13546: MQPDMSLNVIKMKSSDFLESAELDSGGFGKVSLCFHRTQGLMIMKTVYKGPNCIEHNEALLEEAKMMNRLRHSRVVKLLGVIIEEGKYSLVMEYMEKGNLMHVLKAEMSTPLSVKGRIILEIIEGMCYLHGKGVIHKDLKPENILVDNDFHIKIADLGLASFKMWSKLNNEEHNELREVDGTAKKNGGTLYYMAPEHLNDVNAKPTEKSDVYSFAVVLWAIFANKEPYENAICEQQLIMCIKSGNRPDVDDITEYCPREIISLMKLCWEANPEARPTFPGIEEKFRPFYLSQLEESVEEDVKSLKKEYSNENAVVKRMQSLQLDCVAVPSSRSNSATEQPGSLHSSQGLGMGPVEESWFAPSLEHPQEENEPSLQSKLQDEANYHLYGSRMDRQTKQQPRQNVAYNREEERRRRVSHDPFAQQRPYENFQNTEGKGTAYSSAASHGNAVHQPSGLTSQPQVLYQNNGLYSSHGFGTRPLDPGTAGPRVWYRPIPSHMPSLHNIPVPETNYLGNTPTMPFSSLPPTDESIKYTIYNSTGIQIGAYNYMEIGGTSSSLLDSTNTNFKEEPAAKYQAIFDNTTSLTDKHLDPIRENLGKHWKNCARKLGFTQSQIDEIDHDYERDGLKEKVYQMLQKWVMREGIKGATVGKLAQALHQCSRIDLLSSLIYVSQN

The target of assay [1] is HSP90β/CDC37 heterocomplex in HEK293T cells stably expressing Renilla-HSP90β (LUMIER assay) (UniProt P27652). Description: LUMIER assay in HEK293T cells.
Assay [2] shares this target. Nature of the assay: LUMIER assay in TGFβ-treated HEK293T cells, with and without 10 µM KBU2046.

No constants are given. Whether binding was seen depends on the method and setting. Some binding calls cover weakened binding; strength is not graded here.

Turning to “FLAG-tagged RIPK1 transfected into HEK293T cells (from UniProt Q13546 1-671) (enzyme)”, the binding result in assay [1] and in assay [2] was “binds” in each case.
